{"source": "paper PMC2581491", "biological_target": "T1, Fml1ΔC (Schizosaccharomyces pombe) (UniProt Q9UT23)", "T1 sequence (looked up, limits assumed)": "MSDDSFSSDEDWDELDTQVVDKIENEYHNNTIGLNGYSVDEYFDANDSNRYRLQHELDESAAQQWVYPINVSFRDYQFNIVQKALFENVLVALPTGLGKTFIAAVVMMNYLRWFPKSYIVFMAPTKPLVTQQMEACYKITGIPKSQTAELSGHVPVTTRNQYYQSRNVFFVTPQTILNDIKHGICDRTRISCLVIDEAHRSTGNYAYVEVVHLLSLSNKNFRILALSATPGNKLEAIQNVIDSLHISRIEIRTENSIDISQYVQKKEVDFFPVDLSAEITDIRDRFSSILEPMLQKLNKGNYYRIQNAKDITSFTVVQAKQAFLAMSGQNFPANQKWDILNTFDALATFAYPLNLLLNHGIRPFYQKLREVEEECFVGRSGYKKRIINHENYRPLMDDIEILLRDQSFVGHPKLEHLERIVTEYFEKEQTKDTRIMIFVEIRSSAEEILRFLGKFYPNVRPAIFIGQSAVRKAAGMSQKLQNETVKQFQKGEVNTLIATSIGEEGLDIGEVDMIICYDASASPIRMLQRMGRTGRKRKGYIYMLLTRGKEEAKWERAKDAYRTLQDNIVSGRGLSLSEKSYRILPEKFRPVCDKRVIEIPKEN", "test": "EMSA", "conditions": "EMSA: 0.5 nM labeled DNA in 50 mM Tris-HCl pH 8.0, 1 mM DTT, 100 µg/ml BSA, 6% glycerol, 20 µl, recombinant protein, protein details: N-terminal His6 (pET14b, pSN3), label: 5'-32P on oligo 2 (S7), folded or branched DNA", "note": "For at least one entry, the source does not settle the construct or the ends of the probe. Protein sequences can lack the tags named with them."}
{"sequence": "GACGCTGCCGAATTCTGGCTTGCTAGGACATCTTTGCCCACGTTGACCC / TGGGTCAACGTGGGCAAAGATGTCCTAGCAATGTAATCGTCTATGACGTT / CAACGTCATAGACGATTACATTGCTAGGACATGCTGTCTAGAGACTATCGA / ATCGATAGTCTCTAGACAGCATGTCCTAGCAAGCCAGAATTCGGCAGCGT [X-12]", "values": [{"measurement": "binding result", "setting": "bound equally well as X-0", "value": "binds"}]}
{"sequence": "TGCCGAATTCTACCAGTGCCAGTGATGGACATCTTTGCCCACGTTGACCC / TGGGTCAACGTGGGCAAAGATGTCCTAGCAATGTAATCGTCTATGACGTT / CAACGTCATAGACGATTACATTGCTACATGGAGCTGTCTAGAGGATCCGA / GTCGGATCCTCTAGACAGCTCCATGATCACTGGCACTGGTAGAATTCGGC [X-0]", "values": [{"measurement": "binding result", "setting": "bound equally well as X-12", "value": "binds"}]}
{"sequence": "TGGGTCAACGTGGGCAAAGATGTCCTAGCAATGTAATCGTCTATGACGTT / CAACGTCATAGACGATTACATTGCTAATCACTGGCACTGGTAGAATTCGGC / GGACATCTTTGCCCACGTTGACCC / TGCCGAATTCTACCAGTGCCAGTGAT [F2 fork]", "values": [{"measurement": "binding result", "value": "binds"}]}
